The record followed here is PMC8829448.

For the assay, the target named is T1, Flag-Id3 (mouse) (UniProt P41133).
T1 sequence: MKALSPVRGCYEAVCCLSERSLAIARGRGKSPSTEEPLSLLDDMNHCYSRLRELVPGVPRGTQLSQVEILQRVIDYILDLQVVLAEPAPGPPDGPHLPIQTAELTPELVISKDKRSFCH
As to the kind of experiment: co-IP; C2C12 cells co-transfected with pcDNA3.1-XBP1u and Flag-Id3, treated with MG132 (20 uM) for 6 h before lysis; RIPA lysis buffer; Pierce Crosslink magnetic IP and Co-IP kit; immunoprecipitated with anti-Flag antibodies, rabbit IgG as negative control; western blot. On the technique in general: Immunoblotting shows a protein as a band on a membrane.

No constants are given. Whether binding was seen depends on the method and setting. Binding seen in cells or lysates may run through a third protein. Some results given as binding are weak or reduced against the parent protein; the word gives no strength. Tags and fused reporters may be left off the sequences shown.

B1: unspliced X-box-binding protein 1 (XBP1u) (protein, UniProt O35426-1 1-267)
chain: MVVVAAAPSAATAAPKVLLLSGQPASGGRALPLMVPGPRAAGSEASGTPQARKRQRLTHLSPEEKALRRKLKNRVAAQTARDRKKARMSELEQQVVDLEEENHKLQLENQLLREKTHGLVVENQELRTRLGMDTLDPDEVPEVEAKGSGVRLVAGSAESAALRLCAPLQQVQAQLSPPQNIFPWTLTLLPLQILSLISFWAFWTSWTLSCFSNVLPQSLLVWRNSQRSTQKDLVPYQPPFLCQWGPHQPSWKPLMNSFVLTMYTPSL
For the molecule B1, the binding entry is “binds”.
